# The other results are listed elsewhere or left out. These are further read-outs of the screen, such as a control signal, another cell line or another target. No call is given for them. Most of these compounds were active or inconclusive in the main read-out, so they are no random draw. The note in brackets gives the kind of curve behind each potency; many fits are weak.
# Assay: qHTS Assay for Lipid Storage Modulators in Drosophila S3 Cells;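 as to cell number change: cells counted by Cell Tracker Red CMTPX staining in the red channel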
# Conditions: BODIPY lipid droplet fluorescence, 18-24 h; for cell number change: measured here: cell count max response, cells fed with added oleic acid
# In short: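 Drosophila S3 cells loaded with oleic acid (400 uM, as added) and compounds at several concentrations; lipid droplets imaged by 488-nm laser-scanning cytometry, 500–530 nm intensity and object ratio to cell channel. Percent activity normalized to 20 uM Triacsin C.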
# [1] = measured here: lipid fluorescence (Fed channel) AC50, cells fed with added oleic acid
# [2] = measured here: cell number channel AC50, cells fed with added oleic acid
structure (smiles),measurement,setting,value
Cc1ccc(C(=O)COC(=O)CCS(=O)(=O)c2ccccc2)cc1[N+](=O)[O-],cell number change,,14.6%
same,AC50,[1],"0.259 µM [rising, full curve]"
CCOC(=O)C1(Nc2nccs2)Sc2ccccc2NC1=O (stereo unspecified),cell number change,,-8.66%
same,AC50,[1],"0.0731 µM [falling, full curve, poor fit]"
Cc1ccc(C(=O)CCC(=O)OC(C)C(=O)NC2CCCCC2C)cc1 (stereo unspecified),cell number change,,-7.92%
same,AC50,[2],"0.082 µM [falling, full curve, poor fit]"
CCn1ncc(C2=NOC(C(=O)NCc3ccc(OC)cc3)C2)c1C (stereo unspecified),cell number change,,1.8%
same,AC50,[2],"6.51 µM [falling, single point]"
same,AC50,[1],"6.51 µM [falling, single point]"
CCOc1cc(/C=C2\C(=N)N3N=C(C)SC3=NC2=O)ccc1OCCOc1cccc(OC)c1,cell number change,,-3.52%
N/C(Cc1ccc(Cl)cc1Cl)=N\OC(=O)c1ccccc1,cell number change,,-18.6%
same,AC50,[1],"18.4 µM [falling, single point]"
Cc1ccc(C(=O)N/C(=C\c2ccc(-c3ccccc3[N+](=O)[O-])o2)C(=O)NCCCN2CCOCC2)cc1,cell number change,,-1.14%
COc1ccc([C@@H]2[C@@H]3C(=O)N(C(C)(C)C)C(=O)[C@@H]3[C@]3(C)C(=O)N(c4cccc(C)c4)C(=O)N23)cc1,cell number change,,16.2%
NS(=O)(=O)c1ccc(CNS(=O)(=O)Cc2ccc(Cl)cc2)cc1,cell number change,,-29.6%
same,AC50,[1],"4.61 µM [falling, single point]"
Nc1nc(C(F)(F)F)cc(=O)n1N,cell number change,,-94.9%
same,AC50,[2],"25.9 µM [falling, partial curve, poor fit]"
same,AC50,[1],"29.1 µM [falling, partial curve, poor fit]"
COC(=O)CSC1=C(C#N)C(c2cccc(F)c2)CC(=O)N1 (stereo unspecified),cell number change,,-6.67%
COc1cc(OC)cc(C(=O)N[C@H](C(=O)OCC(=O)Nc2ccc(F)c(F)c2)C(C)C)c1,cell number change,,41.6%
same,AC50,[2],"6.51 µM [rising, partial curve, poor fit]"
same,AC50,[1],"25.9 µM [rising, partial curve]"
Cn1c(=O)n(CCCOc2ccc(Cl)cc2)c2ccccc21,AC50,[1],"0.58 µM [falling, single point]"
O=C1NCCCc2c1no[n+]2[O-],cell number change,,-50.8%
same,AC50,[2],"13 µM [falling, partial curve, poor fit]"
same,AC50,[1],"29.1 µM [falling, single point]"
CCc1nnc(NS(=O)(=O)c2ccc(NC(=S)NC(=O)/C=C/c3ccc(C(C)C)cc3)cc2)s1,cell number change,,-26.4%
CCCCCCn1c(SCC(C)C)nc2c1c(=O)[nH]c(=O)n2C,cell number change,,36%
same,AC50,[2],"29.1 µM [rising, single point]"
same,AC50,[1],"20.6 µM [rising, single point]"
CCc1cc(/C(Cc2cscn2)=N\O)c(O)cc1O,cell number change,,-15.5%
same,AC50,[2],"7.31 µM [falling, single point]"
CC(C)(C)C(=O)CSc1ncnc2sc3c(c12)CCC3,AC50,[1],"29.1 µM [rising, single point]"
O=C(c1ccncc1)N1CCN(S(=O)(=O)c2cccc(C(F)(F)F)c2)CC1,cell number change,,13.3%
O=C(O)[C@@H]1CCCN1C(=O)c1ccco1,cell number change,,-34.3%
same,AC50,[2],"0.0231 µM [falling, full curve, poor fit]"
same,AC50,[1],"1.16 µM [falling, full curve]"
Cc1nnn(C23CC4CC(CC(CC(=O)Nc5ccc(C)c(C)c5)(C4)C2)C3)n1,cell number change,,-8.07%
same,AC50,[1],"16.4 µM [falling, single point]"
Cc1cc([N+](=O)[O-])nn1CC(=O)Nc1nccs1,cell number change,,-52.9%
same,AC50,[2],"1.46 µM [falling, partial curve]"
same,AC50,[1],"29.1 µM [falling, single point]"
COc1ccc(N2CCN(C(=O)COC(=O)c3oc4ccccc4c3C)CC2)cc1,cell number change,,-8.17%
CCC1(CC)NC(=O)N(CC(=O)OCC(=O)Nc2ccccc2[N+](=O)[O-])C1=O,cell number change,,-31.9%
same,AC50,[2],"6.51 µM [falling, partial curve]"
same,AC50,[1],"13 µM [falling, partial curve, poor fit]"
O=C(NC(=S)Nc1ccccc1O)c1ccc(-c2ccc(Cl)cc2)o1,cell number change,,-65.3%
same,AC50,[2],"18.4 µM [falling, single point]"
same,AC50,[1],"29.1 µM [falling, single point]"
Cc1ccc(N=c2c([N+](=O)[O-])nn(-c3ccc4c(c3)OCCO4)n2O)c(Cl)c1,cell number change,,-26.5%
same,AC50,[2],"0.731 µM [rising, partial curve, poor fit]"
Cc1ccc(S(=O)(=O)N2CCCCC2CCNC(=O)C(=O)NCc2ccco2)cc1 (stereo unspecified),AC50,[2],"0.092 µM [rising, full curve, poor fit]"
same,AC50,[1],"0.103 µM [rising, full curve, poor fit]"
C=CCn1c(SCC(=O)OCC)nc2cc(C(=O)NCc3ccco3)ccc2c1=O,cell number change,,-1.3%
same,AC50,[2],"2.91 µM [rising, single point]"
same,AC50,[1],"4.61 µM [rising, single point]"
CCOC(=O)C1CCCN(C(=O)CSc2ccc(NC(C)=O)cc2)C1 (stereo unspecified),cell number change,,5.13%
O=C(COC(=O)c1cccc([N+](=O)[O-])c1)NCC1CCCO1 (stereo unspecified),cell number change,,0.593%
Cc1ccc2cccnc2c1NC(=S)NC(=O)c1ccccc1,AC50,[2],"2.31 µM [rising, partial curve]"
same,AC50,[1],"2.06 µM [rising, partial curve]"
O=C(Nc1cccc(Cl)c1)C1CCCN(S(=O)(=O)c2cnc[nH]2)C1 (stereo unspecified),cell number change,,-4.98%
O=C(N/N=C/c1ccc(OCC(=O)N2CCOCC2)cc1)c1ccccc1Cl,cell number change,,-9.55%
CC1CCCCC1NC(=O)c1ccc2c(c1)OCCO2 (stereo unspecified),cell number change,,-12.6%
same,AC50,[1],"0.517 µM [falling, full curve, poor fit]"
CCc1n[nH]c(=S)n1/N=C/c1c(C)nn(-c2ccccc2)c1Cl,cell number change,,-15.2%
same,AC50,[1],"13 µM [falling, partial curve, poor fit]"
CCOC(=O)c1ccc(Oc2coc3cc(O)ccc3c2=O)cc1,AC50,[2],"0.651 µM [rising, single point]"
COc1ccc(S(=O)(=O)NCc2ccncc2)cc1NC(=O)c1ccccc1C,cell number change,,-12.9%
C#CCSC1=C(C#N)C(c2cccs2)C(C(=O)OCC)=C(C)N1 (stereo unspecified),cell number change,,-1.12%
COc1ccc(-c2nc3ccccn3c2C=O)cc1,cell number change,,-11.3%
CCOC(=O)CC1(NC(=O)c2cc(COc3cncc(Cl)c3)on2)CCCCC1,cell number change,,-37.5%
same,AC50,[2],"29.1 µM [falling, single point]"
same,AC50,[1],"32.6 µM [falling, partial curve]"
Cc1ccc(N2C(=O)c3ccccc3NC2C(C)Cc2ccc3c(c2)OCO3)cc1 (stereo unspecified),cell number change,,-10%
same,AC50,[1],"2.91 µM [rising, partial curve]"
CC1(C)CC(=O)C(C=NCCN2CCN(C(=O)CC3CCCC3)CC2)=C(O)C1,cell number change,,6%
same,AC50,[1],"29.1 µM [falling, single point]"
CC1CCCC(C)N1CC(O)COc1c(F)cc(Br)cc1F (stereo unspecified),cell number change,,-105%
same,AC50,[1],"29.1 µM [falling, partial curve]"
Cc1sc2ncn(CC(=O)NCCCOC(C)C)c(=O)c2c1S(=O)(=O)N1CCN(c2ncccn2)CC1,cell number change,,-12.2%
same,AC50,[2],"6.51 µM [falling, single point]"
Cc1ccccc1N(CC(=O)NC1CCCCC1)C(=O)CNC(=O)c1cccs1,cell number change,,-19%
same,AC50,[2],"0.13 µM [falling, full curve, poor fit]"
same,AC50,[1],"29.1 µM [falling, partial curve, poor fit]"
CC1(C(=O)N2CCC(CO)(Cc3cccc(C(F)(F)F)c3)CC2)CC1,cell number change,,9.84%
Cc1ccc(N(CC(O)CN2CCCC2)S(=O)(=O)c2ccccc2)cc1 (stereo unspecified),cell number change,,5.67%
same,AC50,[1],"5.17 µM [falling, single point]"
CCOC(=O)c1nnn(-c2nonc2N)c1-c1ccc(C)cc1,cell number change,,-17.8%
same,AC50,[1],"0.731 µM [falling, full curve, poor fit]"
COc1cccc(-c2cc(C(=O)O)no2)c1,cell number change,,-23.8%
same,AC50,[1],"29.1 µM [falling, single point]"
CC(C)(C)c1ccc(C2(C)NC(=O)N(CC(=O)NCc3cccs3)C2=O)cc1 (stereo unspecified),AC50,[1],"13 µM [falling, partial curve]"
Cc1c(C(=O)NCc2nnc(-c3ccccc3)o2)oc2c(F)cccc12,cell number change,,-6.23%
same,AC50,[1],"25.9 µM [falling, single point]"
C/C(=N\NC(=O)Cn1c(-c2ccccn2)nc2ccccc21)c1ccccc1,cell number change,,34.7%
same,AC50,[2],"29.1 µM [rising, single point]"
O=C1C=C(c2ccc(-c3ccccc3)cc2)C[C@@H](c2ccc3c(c2)OCO3)C1,cell number change,,19.9%
same,AC50,[2],"0.00461 µM [falling, full curve, poor fit]"
same,AC50,[1],"4.61 µM [rising, single point]"
CCC(C(=O)OCC(=O)Nc1cccc(S(=O)(=O)NC2=NCCCCC2)c1)c1ccccc1 (stereo unspecified),cell number change,,-24.5%
same,AC50,[1],"0.651 µM [falling, partial curve, poor fit]"
Cc1ccc(OCC(=O)Nc2c(C)ccc3nsnc23)cc1,cell number change,,-7.08%
O=C(CSc1ccc(-c2nc3ccccc3[nH]2)cn1)Nc1ccc(S(=O)(=O)N2CCCC2)cc1,cell number change,,-6.79%
same,AC50,[1],"18.4 µM [falling, single point]"
Cc1ccc(Cl)c2c(N=Nc3ccccc3)c(O)[nH]c12,cell number change,,17.7%
same,AC50,[1],"0.259 µM [falling, full curve]"
CCOC(=O)C(NCc1ccc(F)cc1)(NC(=O)c1ccccc1)C(F)(F)F (stereo unspecified),AC50,[1],"6.51 µM [falling, full curve, poor fit]"
CC(C)(C)OC(=O)N1CCC[C@H]1C(=O)NCc1ccc(Cl)cc1Cl,AC50,[2],"0.0058 µM [falling, full curve, poor fit]"
Cc1cccc(Oc2ccc(NC(=O)c3ccccc3C(=O)O)cc2)c1,cell number change,,17.4%
same,AC50,[1],"6.51 µM [rising, full curve, poor fit]"

# An excerpt of these results, bar-delimited.
structure (smiles) | measurement | setting | value
CC(C)(C)c1ccc(C2(C)NC(=O)N(CC(=O)NCc3cccs3)C2=O)cc1 (stereo unspecified) | AC50 | [1] | 13 µM [falling, partial curve]
Cc1c(C(=O)NCc2nnc(-c3ccccc3)o2)oc2c(F)cccc12 | cell number change |  | -6.23%
same | AC50 | [1] | 25.9 µM [falling, single point]
C/C(=N\NC(=O)Cn1c(-c2ccccn2)nc2ccccc21)c1ccccc1 | cell number change |  | 34.7%
